No constants are given. Whether binding was seen depends on the method and setting. In cells and extracts the contact can be indirect. A yes stands for co-enrichment or nearness to the bait. Other partners may have been found. Tags and fused reporters may be left off the sequences shown.
Biological target: Flag-3D of CVB3 (RNA-dependent RNA polymerase 3D^pol of Coxsackievirus B3) (Coxsackievirus B3)
Test: affinity purification with mass spectrometry; HEK293T cells transfected with Flag-3D for 36 h, then CVB3 (MOI = 5) or mock infection for 18 h; NP40 lysate on anti-Flag magnetic beads, washed 10 times; trypsin, HPLC-MS/MS

B1: TRIM4 (endogenous, found by mass spectrometry with Flag-3D) (enzyme, UniProt Q9C037 1-500)
chain: MEAEDIQEELTCPICLDYFQDPVSIECGHNFCRGCLHRNWAPGGGPFPCPECRHPSAPAALRPNWALARLTEKTQRRRLGPVPPGLCGRHWEPLRLFCEDDQRPVCLVCRESQEHQTHAMAPIDEAFESYRTGNFDIHVDEWKRRLIRLLLYHFKQEEKLLKSQRNLVAKMKKVMHLQDVEVKNATQWKDKIKSQRMRISTEFSKLHNFLVEEEDLFLQRLNKEEEETKKKLNENTLKLNQTIASLKKLILEVGEKSQAPTLELLQNPKEVLTRSEIQDVNYSLEAVKVKTVCQIPLMKEMLKRFQVAVNLAEDTAHPKLVFSQEGRYVKNTASASSWPVFSSAWNYFAGWRNPQKTAFVERFQHLPCVLGKNVFTSGKHYWEVESRDSLEVAVGVCREDVMGITDRSKMSPDVGIWAIYWSAAGYWPLIGFPGTPTQQEPALHRVGVYLDRGTGNVSFYSAVDGVHLHTFSCSSVSRLRPFFWLSPLASLVIPPVTDRK
With B1 the binding was “binds”.

Source: publication PMC12646006
